PubChem BioAssay AID1224830 | NIAID, 2016

Assay: 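Regulators of TLR4 signalling towards TNF-alpha in macrophage-like cells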 (primary screen)
Cell system: human THP-1 monocytic leukaemia cells, TNF dual-luciferase reporter clone, PMA-differentiated to macrophage-like cells
Reagents: siRNA pool against human genes, 50 nM
Timing: LPS for 4 h, given about 3 days after siRNA transfection
Treatment: bacterial LPS (TLR4 ligand), 10 ng/ml
Read-out: 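Ratio of firefly to renilla light, scaled to the plate median and expressed as a robust z-score per replicate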
Direction: TNF reporter robust z-score: higher = stronger TNF reporter response to LPS
Call rule: 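a well is active when its z-score exceeds 2.8 or falls below -1.5; control wells carry no call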
The deposit covers about 18,000 reagents; below is a random part of them. In the full data, about 2,900 (16%) got an active call. 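Calls are made per well; low scores hint the gene aids the LPS response, high scores that it dampens it.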 Repeated entries: four replicate wells of each siRNA pool.

The opening 17 entries, ahead of the listing:
| gene | TNF reporter robust z-score | activity call |
| --- | --- | --- |
| FOXO3 | 0.72 | inactive |
| FOXO3 | 1.19 | inactive |
| FOXO3 | 1.63 | inactive |
| FOXO3 | 1.6 | inactive |
| ASAP1 | -1.36 | inactive |
| ASAP1 | -0.81 | inactive |
| ASAP1 | -0.92 | inactive |
| FCGR3B | -0.89 | inactive |
| FCGR3B | -0.5 | inactive |
| FCGR3B | -1.14 | inactive |
| FCGR3B | -0.46 | inactive |
| COL19A1 | 0.37 | inactive |
| COL19A1 | 1.67 | inactive |
| COL19A1 | 3.5 | active |
| COL19A1 | 2.94 | active |
| HMGXB4 | -0.68 | inactive |
| HMGXB4 | -0.15 | inactive |

The listing, repeating the preview:
| gene | TNF reporter robust z-score | activity call |
| --- | --- | --- |
| FOXO3 | 0.72 | inactive |
| FOXO3 | 1.19 | inactive |
| FOXO3 | 1.63 | inactive |
| FOXO3 | 1.6 | inactive |
| ASAP1 | -1.36 | inactive |
| ASAP1 | -0.81 | inactive |
| ASAP1 | -0.92 | inactive |
| FCGR3B | -0.89 | inactive |
| FCGR3B | -0.5 | inactive |
| FCGR3B | -1.14 | inactive |
| FCGR3B | -0.46 | inactive |
| COL19A1 | 0.37 | inactive |
| COL19A1 | 1.67 | inactive |
| COL19A1 | 3.5 | active |
| COL19A1 | 2.94 | active |
| HMGXB4 | -0.68 | inactive |
| HMGXB4 | -0.15 | inactive |
| HMGXB4 | -0.09 | inactive |
| HMGXB4 | 0.37 | inactive |
| ZNF322P1 | 0.4 | inactive |
| ZNF322P1 | -0.61 | inactive |
| ZNF322P1 | -0.06 | inactive |
| NOL8 | 1.06 | inactive |
| NOL8 | 1.62 | inactive |
| NOL8 | 0.02 | inactive |
| NOL8 | 0.5 | inactive |
| CDH20 | -0.59 | inactive |
| CDH20 | -0.04 | inactive |
| CDH20 | -1.17 | inactive |
| CDH20 | -0.41 | inactive |
| NXPH4 | -0.94 | inactive |
| NXPH4 | -0.5 | inactive |
| NXPH4 | -0.48 | inactive |
| NXPH4 | 0.86 | inactive |
| CHODL | -0.25 | inactive |
| CHODL | -0.2 | inactive |
| CHODL | 0.15 | inactive |
| CHODL | -0.16 | inactive |
| ENPP6 | -1.64 | active |
| ENPP6 | -1.58 | active |
| ENPP6 | -2.13 | active |
| ENPP6 | -2.06 | active |
| ANGPTL5 | 0.41 | inactive |
| ANGPTL5 | 0.42 | inactive |
| ANGPTL5 | -0.24 | inactive |
| ANGPTL5 | -0.01 | inactive |
| AKR1C8 | -0.89 | inactive |
| AKR1C8 | 0.27 | inactive |
| AKR1C8 | -0.28 | inactive |
| AKR1C8 | 0.38 | inactive |
| CCDC186 | 3.35 | active |
| CCDC186 | 0.62 | inactive |
| CCDC186 | 0.85 | inactive |
| CCDC186 | 0.02 | inactive |
| RAC1 | 2.38 | inactive |
| RAC1 | 2.45 | inactive |
| RAC1 | 0.95 | inactive |
| RAC1 | 1.53 | inactive |
| AQP1 | -0.48 | inactive |
| AQP1 | 0.16 | inactive |
| AQP1 | 0.34 | inactive |
| EMD | -0.07 | inactive |
| EMD | -0.18 | inactive |
| EMD | 0.92 | inactive |
| EMD | -0.36 | inactive |
| DGAT2 | -0.6 | inactive |
| DGAT2 | -0.97 | inactive |
| DGAT2 | -0.52 | inactive |
| DGAT2 | -0.93 | inactive |
| CBFA2T3 | -0.56 | inactive |
| CBFA2T3 | 0.45 | inactive |
| CBFA2T3 | -0.27 | inactive |
| CBFA2T3 | 0.73 | inactive |
| SLC71A2 | -0.23 | inactive |
| SLC71A2 | 1.49 | inactive |
| SLC71A2 | 0.13 | inactive |
| SLC71A2 | 1.12 | inactive |
| C7orf25 | -0.59 | inactive |
| C7orf25 | -0.52 | inactive |
| C7orf25 | 0.55 | inactive |
| C7orf25 | -0.28 | inactive |
| GDF10 | -1.04 | inactive |
| GDF10 | -0.19 | inactive |
| GDF10 | -0.63 | inactive |
| GDF10 | 0.27 | inactive |
| KMT2E | -0.38 | inactive |
| KMT2E | -0.05 | inactive |
| KMT2E | -1.13 | inactive |
| KMT2E | -0.83 | inactive |
| MYL1 | -1.59 | active |
| MYL1 | -1.45 | inactive |
| MYL1 | -2.1 | active |
| MYL1 | -1.72 | active |
| LY6H | 1.16 | inactive |
| LY6H | 0.84 | inactive |
| LY6H | 1.19 | inactive |
| LY6H | 0.66 | inactive |
| CSF1 | -0.81 | inactive |
| CSF1 | 0.07 | inactive |
| CSF1 | -0.72 | inactive |
| CSF1 | -0.51 | inactive |
| APPL1 | 4.6 | active |
| APPL1 | 6.45 | active |
| APPL1 | 6.25 | active |
| APPL1 | 4.13 | active |
| APEX2 | -0.11 | inactive |
| APEX2 | 0.52 | inactive |
| APEX2 | 0.05 | inactive |
| APEX2 | -0.18 | inactive |
| FGF9 | -0.85 | inactive |
| FGF9 | -0.47 | inactive |
| FGF9 | -1.4 | inactive |
| FGF9 | -1.28 | inactive |
| HDAC5 | 0 | inactive |
| HDAC5 | 0.38 | inactive |
| HDAC5 | -0.11 | inactive |
| HDAC5 | 0.55 | inactive |
| NTSR2 | 0.18 | inactive |
| NTSR2 | -0.04 | inactive |
| NTSR2 | -0.16 | inactive |
| NTSR2 | 0.09 | inactive |
| DLGAP4 | -1.47 | inactive |
| DLGAP4 | -0.97 | inactive |
| DLGAP4 | -1.34 | inactive |
| DLGAP4 | -1.15 | inactive |
| SIGLEC9 | -0.83 | inactive |
| SIGLEC9 | -0.6 | inactive |
| SIGLEC9 | -0.92 | inactive |
| SIGLEC9 | -0.79 | inactive |
| ATP6V1G1 | -0.49 | inactive |
| ATP6V1G1 | 0.45 | inactive |
| ATP6V1G1 | 0.04 | inactive |
| ATP6V1G1 | -0.58 | inactive |
| SLC29A1 | -1.8 | active |
| SLC29A1 | -1.08 | inactive |
| SLC29A1 | -1.47 | inactive |
| SLC29A1 | -0.82 | inactive |
| IER2 | 0.13 | inactive |
| IER2 | 0.79 | inactive |
| IER2 | 0.74 | inactive |
| IER2 | 0.49 | inactive |
